# Source: patent publication US20240299303A1, “NANOSTRUCTURE OR MICROSTRUCTURE AND METHOD FOR PRODUCING SAME” (The University of Tokyo, priority 2021, published 2024)
# Counter-ions that a name gives are not always drawn.
# Experiment: Introduction of compounds into nanosheets, absorbance of supernatant after centrifugation
# Type: physicochemical
# Protocol: (§1) 700 Microliters of an aqueous solution (300 μg/mL) of 5-fluorouracil was added to 500 mg of the nanosheet dispersion-1 obtained in Example 1, and the mixture was shaken at room temperature for 48 hours. The nanosheet dispersion having introduced thereinto 5-fluorouracil was centrifuged (at 12,000 rpm for 10 minutes), and the supernatant liquid was collected.
# The introduction amount of 5-fluorouracil was determined by the same process as that of Example 4 except that a concentration-absorbance calibration curve was produced at a predetermined wavelength (λ=270 nm).
# as §1, with “(100” for “(300”, “hydrocortisone” for “5-fluorouracil”
# The introduction amount of hydrocortisone was determined by the same process as that of Example 4 except that a concentration-absorbance calibration curve was produced at a predetermined wavelength (λ250 nm).
# as §1, with “500” for “700”, “(30” for “(300”, “betamethasone” for “5-fluorouracil”, “100” for “500”
# The introduction amount of betamethasone was determined by the same process as that of Example 4 except that a concentration-absorbance calibration curve was produced at a predetermined wavelength (λ=250 nm).
# as §1, with “500” for “700”, “(30” for “(300”, “menadione” for “5-fluorouracil”, “100” for “500”
# The introduction amount of menadione was determined by the same process as that of Example 4 except that a concentration-absorbance calibration curve was produced at a predetermined wavelength (λ=250 nm).
smiles,measurement,setting,value
"COc1cc2c(cc1OC)C(=O)C(CC1CCN(Cc3ccccc3)CC1)C2 (centres unmarked) [Donepezil hydrochloride, donepezil hydrochloride]",introduction amount relative to the weight of the nanosheets,"Examples 4-8, crosslinked β-cyclodextrin nanosheets",0.70 wt %
same,Weight of introduced compound/weight of nanosheets,"Table 1, crosslinked β-cyclodextrin nanosheets",0.60%
same,Concentration of introduced compound before introduction,"in nanosheet dispersion, defined in consideration of dilution with moisture in the dispersion, nanosheets 43 mg/mL (Examples 4-6) or 17 mg/mL (Examples 7-8)",304 µg/mL
same,amount of compound introduced into the nanosheets (reduction in concentration before and after introduction),nanosheets 43 mg/mL (Examples 4-6) or 17 mg/mL (Example 8),304 µg/mL
same,Concentration of introduced compound after introduction,"supernatant after shaking at room temperature 48 hours and centrifugation, absorbance, nanosheets 43 mg/mL (Examples 4-6) or 17 mg/mL (Examples 7-8)",0 µg/mL
